Measured values from ChEMBL document CHEMBL2046269, “Phthalide and isocoumarin derivatives produced by an Acremonium sp. isolated from a mangrove Rhizophora apiculata” (2012).
Converted amounts (≈) assume the structure as drawn.

System: Candida albicans
Assay: Antifungal activity against Candida albicans NCPF 3153 after 15 hrs by colorimetric broth microdilution test
Format: functional
Conditions: NCPF 3153, 15 h

For `C[C@@H]1[C@H](O)[C@@H](C)/C=C/C=C/C=C/C=C/C=C/C=C/C=C/[C@H](O[C@@H]2O[C@H](C)[C@@H](O)[C@H](N)[C@@H]2O)C[C@@H]2O[C@](O)(C[C@@H](O)C[C@@H](O)[C@H](O)CC[C@@H](O)C[C@@H](O)CC(=O)O[C@H]1C)C[C@H](O)[C@H]2C(=O)O` [AMPHOTERICIN B], the MIC was 0.25 µg/mL (≈ 0.271 µM).
